## Library screen at single concentrations

Data taken from ChEMBL document CHEMBL3988442, “University of Dundee, Small-Polar-MMV Screening Library” (2021).

Mtb glucose medium: 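Growth of Mycobacterium tuberculosis over 3 days (7H9 medium with glucose and tyloxapol); the read-out is not stated. Concentration: 50 µM. Higher reads as more growth inhibition (inferred: compounds with an IC50 in retests scored well above the rest). Size under these conditions: about 69,000 compounds, about 760 of them at 50% or above in at least one test.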
Mtb cholesterol medium: 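Growth of Mycobacterium tuberculosis over 4 days (cholesterol / DPPC medium with tyloxapol); the read-out is not stated. Concentration: 50 µM. Direction is inferred from retests: higher values go with more growth inhibition. Of about 69,000 compounds tested this way, about 370 (0.54%) reached 50% or more in at least one test.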

Values are the deposited “Percent Effect”, in %.
How 0% and 100% were set is not recorded. Most values in the screen are low, and negative values occur.
Compounds were drawn at random from those tested, without regard to their results.
Two or more numbers in one place are separate tests of the same structure; such repeats can differ widely.

Result for Cc1ccc(CNC(=O)CN(C)CC2CCN(CCO)CC2)s1 was Mtb glucose medium: 15.88%; Mtb cholesterol medium: -2.484%.
Result for COC(=O)c1ccc(S(=O)(=O)NCC(C)(O)c2cccs2)cc1 (configuration not stated) was Mtb glucose medium: 12.11%; Mtb cholesterol medium: 4.684%.
Result for CCCc1nc(NCCOC)c2c(n1)c(C)nn2CC was Mtb glucose medium: 7.858%; Mtb cholesterol medium: -2.234%.
Result for c1ccc(C(OCCNC2CCc3ncnn3C2)c2ccccc2)cc1 (configuration not stated) was Mtb glucose medium: 33.16%; Mtb cholesterol medium: -2.678%.
Result for CC(C)[C@H]1CN(c2ccncc2)C[C@@H]1NS(=O)(=O)N(C)C was Mtb glucose medium: 6.831%; Mtb cholesterol medium: 3.319%.
Result for CCc1nccn1-c1cncc(C2CCN(C(=O)COC)CC2)n1 was Mtb glucose medium: 13.86%; Mtb cholesterol medium: 18.83%.
Result for Cc1ncccc1CNC1CCCN(Cc2noc(C3CC3)n2)C1 (configuration not stated) was Mtb glucose medium: -2.533% & -27.25%; Mtb cholesterol medium: -7.756%.
Result for Cn1cnnc1C1CCCN(C(=O)COCc2ccccc2)C1 (configuration not stated) was Mtb glucose medium: -26.24%; Mtb cholesterol medium: -17.58%.
Result for CC(C)COC(=O)N1CCN(C(=O)c2ccc3nccn3c2)CC1 was Mtb glucose medium: -49.9%; Mtb cholesterol medium: -13.82%.
Result for COc1c(C2CCCN2Cc2nnc(C3CC3)n2C)c(C)nn1C (configuration not stated) was Mtb glucose medium: -16.98%; Mtb cholesterol medium: -13.45%.
Result for CC(C)CN1CCn2c(nc3cc(C(=O)NC(C)C)ccc32)C1 was Mtb glucose medium: -3.096%; Mtb cholesterol medium: 0.6505%.
Result for COc1cc(C)c(S(=O)(=O)CC(=O)N(C)C(C)C)cc1OC was Mtb glucose medium: -20.93%; Mtb cholesterol medium: 0.004031%.
Result for Cc1occc1C(=O)N1CCCC2(CCN(c3ccsc3)C2=O)C1 (configuration not stated) was Mtb glucose medium: 5.146%; Mtb cholesterol medium: -19.87% & 1.163%.
Result for O=C1CCC2(CCNCC2)CN1Cc1nncn1CCc1ccccc1 was Mtb glucose medium: -10.95%; Mtb cholesterol medium: -19.89%.
Result for Cc1cnc(N2CCOC3(CCCN(CC(=O)N(C)C)C3)C2)nc1.O=C(O)C(F)(F)F.O=C(O)C(F)(F)F (configuration not stated) was Mtb glucose medium: -3.019% & -7.208%; Mtb cholesterol medium: 12.25%.
Result for CC(=O)NC1CCCN(C(=O)NCc2ccc(-n3cccn3)cc2)C1 (configuration not stated) was Mtb glucose medium: 13.58%; Mtb cholesterol medium: 6.479%.
Result for CCN(CC1COc2ccccc2O1)C(=O)NCCCn1cncn1 (configuration not stated) was Mtb glucose medium: 8.36%; Mtb cholesterol medium: 8.216%.
Result for CC(C)CC(=O)N1CCN(Cc2cc(-c3ccncc3)nn2C)CC1 was Mtb glucose medium: -16.96%; Mtb cholesterol medium: -20.79%.
Result for CC(C)CSCCCNC(=O)C1CCOC1 (configuration not stated) was Mtb glucose medium: -20.62%; Mtb cholesterol medium: -6.852%.
Result for CCSCCNc1nc2c(s1)c(C)nn2C was Mtb glucose medium: 20.94% & 15.44%; Mtb cholesterol medium: 5.856%.
Result for CC(Oc1cc(Cl)cc(Cl)c1)C(=O)NCCC(=O)N(C)C (configuration not stated) was Mtb glucose medium: 27.81%; Mtb cholesterol medium: -18.14%.
Result for COCc1ccc(C(=O)N(CCC#N)Cc2ccccn2)cc1 was Mtb glucose medium: 9.75%; Mtb cholesterol medium: -10.38% & -7.203%.
Result for O=C(CS(=O)(=O)c1cccc[n+]1[O-])NC1CCCc2ccccc21 (configuration not stated) was Mtb glucose medium: 33.88%; Mtb cholesterol medium: 17.99%.
Result for Cc1nc(C)c(C(=O)NCCNc2ncccc2C(F)(F)F)s1 was Mtb glucose medium: 1.421%; Mtb cholesterol medium: -28.66%.
Result for Cn1ncc2c1NC(=O)CSC2c1ccc2c(c1)OCO2 (configuration not stated) was Mtb glucose medium: 2.775%; Mtb cholesterol medium: -7.261%.

Some entries from above, unchanged:

O=C(CS(=O)(=O)c1cccc[n+]1[O-])NC1CCCc2ccccc21 (configuration not stated) read Mtb glucose medium: 33.88%; Mtb cholesterol medium: 17.99%.
Cc1ccc(CNC(=O)CN(C)CC2CCN(CCO)CC2)s1 read Mtb glucose medium: 15.88%; Mtb cholesterol medium: -2.484%.
CCc1nccn1-c1cncc(C2CCN(C(=O)COC)CC2)n1 read Mtb glucose medium: 13.86%; Mtb cholesterol medium: 18.83%.